The text below walks through data of article PMC5715026.

Chains of the proteins cited; added tags and fusions are not shown.
UniProt O70126: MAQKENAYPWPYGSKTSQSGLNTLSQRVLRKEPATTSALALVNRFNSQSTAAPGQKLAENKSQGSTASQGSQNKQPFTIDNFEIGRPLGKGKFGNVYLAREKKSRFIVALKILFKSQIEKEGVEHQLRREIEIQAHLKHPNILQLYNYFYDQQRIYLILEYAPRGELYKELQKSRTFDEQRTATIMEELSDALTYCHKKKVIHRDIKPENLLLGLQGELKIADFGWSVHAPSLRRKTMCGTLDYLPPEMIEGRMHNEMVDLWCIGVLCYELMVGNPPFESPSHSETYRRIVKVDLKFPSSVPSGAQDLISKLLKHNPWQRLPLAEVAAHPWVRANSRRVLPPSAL

Assay [1] addresses T1, FLAG-tagged IFT27 (stably expressed in IMCD cells) (UniProt Q9D0P8).
T1 sequence: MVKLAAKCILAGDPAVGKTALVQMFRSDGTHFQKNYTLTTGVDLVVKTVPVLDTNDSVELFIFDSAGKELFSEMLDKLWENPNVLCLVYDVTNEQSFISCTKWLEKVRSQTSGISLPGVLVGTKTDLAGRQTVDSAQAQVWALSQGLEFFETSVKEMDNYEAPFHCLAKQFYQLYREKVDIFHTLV
Kind of assay: affinity purification with mass spectrometry; lysates (20 mg) of IMCD cells stably expressing FLAG-IFT27, synchronized in mitosis (RO-3306, 1 h release); Flag M2 agarose 3 h at 4 °C, FLAG peptide elution, LTQ-Orbitrap XL.

Assay [2] has as its target T1, FLAG-tagged IFT27 (stably expressed in IMCD cells). The description is as above. The source holds these as a separate data set.

Where two headings read alike, the source gives them in different places. Results are given in words; binding and its absence hold for the method and conditions named. Binding seen in cells or lysates may run through a third protein. These calls come from enrichment with a bait or labelling near it, and not all partners need be listed. Where a sequence is shown, tags or fusion partners need not be part of it.

On to “Aurora B (endogenous, IMCD cells) (from UniProt O70126 1-345) (enzyme)”, for which the binding entry in assay [1] is “binds”.

B1: MgcRacGAP (endogenous, IMCD cells) (protein, UniProt Q9WVM1 1-628)
chain: MDTTMVNLWTLFEQLVRRMEIINEGNESIEFIQVVKDFEDFRKKYQRTNQELEKFKDLLLKAETGRSALDVKLKHARNQVDVEIKRRQRAEAECAKLEQQIQLIRDILMCDTSGSIQLSEEQKSALAFLNRGQASSGHAGNNRLSTIDESGSILSDISFDKTDESLDWDSSLVKNFKMKKREKRRSNSRQFIDGPPGPVKKTCSIGSTVDQANESIVAKTTVTVPSDGGPIEAVSTIETLPSWTRSRGKSGPLQPVNSDSALNSRPLEPRTDTDNLGTPQNTGGMRLHDFVSKTVIKPESCVPCGKRIKFGKLSLKCRDCRLVSHPECRDRCPLPCIPPLVGTPVKIGEGMLADFVSQASPMIPAIVVSCVNEIEQRGLTEAGLYRISGCDRTVKELKEKFLKVKTVPLLSKVDDIHVICSLLKDFLRNLKEPLLTFWLSKAFMEAAEITDEDNSTAAMYQAVSELPQANRDTLAFLMIHLQRVSQSPDTKMDIANLAKVFGPTIVAHTVPNPDPVTMFQDIKRQLKVVERLLSLPLEYWNQFMMVDQENIDSQRGNGNSTPRTPDVKVSLLGPVTTPEFQLVKTPLSSSLSQRLYNLSKSTPRFGNKSKSATNLGQQGKFFPAPYLK
On to B1, for which the binding entry in assay [2] is “binds”.

B2: MKLP1 (endogenous, IMCD cells) (protein, UniProt E9Q5G3 1-953)
chain: MKSAKAKTVRKPVIKKGSQTNLKDPVGVYCRVRPLSFPDQECCVEVINSTTLQLHTPEGYRLNRNGDYKETQYSFKRVFGTHTTQKELFDVVANPLVDDLIHGKNGLLFTYGVTGSGKTYTMTGSPGSGGLLPRCLNMIFNSIGSFQAKRYVFKSNDRNSMEIQCEVDALLERQKREALPIPKTPSSKRQADPEFADMINVQEFCKAEEVDEDSVYGVFVSYIEIYNNYIYDLLEEVQFDPIKPKLPQSKTLREDKNHNMYVAGCTEVEVKSTEEAFEVFWRGQKKRRIANTHLNRESSRSHSVFSIKLVQAPLDADGDNVLQEKEQITISQLSLVDLAGSERTNRTKAEGNRLREAGNINQSLMTLRTCMEVLRENQTYGTNKMVPYRDSKLTHLFKNYFDGEGKVRMIVCVNPKAEDYEESLQVMRFAEVTQEVEVARPVDKVICGLTPGRRYRNLPRGGPVGDEPLVPEVILQSFPPLPPCKLLDINDEETLPKLADTLEKRHHLRQLMTEDLNKKCLAFKALLKEFDNSLSNKENYVQEKLNEREKVISGQKLEIERLEKKNKTLEYKIEILEKTTTIYEEDKRNLQQELESQNQKLQRQFSDKRRLEARLQGMVTETSMKWQKECERRVAATQLEMQNKLWVKDEKLKQLKAIVTEPKPEKPERPSRERDREKIIPRSVSPSPLPLSSNNIAQISNGQQLMSQPQLHRRSNSCSSISVASCISEWEQKLSPFSTPVNVTSLARHRQQEPGQSKTCIVSDRRRGMCWTEGREMVPTFSSEIGVEEDHCRRNTPIPVRHRRSRSAGSRWVDHKPASNVQTETVMQPHVPHAITVSVANEKALAKCEKYMLTHQELASDGEIQTKVIKGDVYKTRGGGQSVQFTDIETLKQELPTGSRKRRSSTLAPAQPDGTESEWTDVETRCSVAVEMRAGSQLGPGYQHHAQPKRKKP
Regarding B2, the binding entry in assay [2] was “binds”.
